Values quoted from earlier work, collected in US6121055A, “Methods and devices for conducting specific binding assays” (priority 1995, dated 2000).
The name of at least one read-out is uncertain.

Conditions: Table 2 comment; cited from earlier work

In the case of OC[C@@H](O)[C@@H](O)[C@H](O)[C@@H](O)CO [SORBITOL], the “SOLUBLE TO” value is listed as 83%.
